Results are given in words; binding and its absence hold for the method and conditions named. Binding seen in cells or lysates may run through a third protein. Some entries that bind do so weakly or less than the wild type.

The chains behind the UniProt entries cited, without tags or fusion partners.
UniProt Q9C0F3: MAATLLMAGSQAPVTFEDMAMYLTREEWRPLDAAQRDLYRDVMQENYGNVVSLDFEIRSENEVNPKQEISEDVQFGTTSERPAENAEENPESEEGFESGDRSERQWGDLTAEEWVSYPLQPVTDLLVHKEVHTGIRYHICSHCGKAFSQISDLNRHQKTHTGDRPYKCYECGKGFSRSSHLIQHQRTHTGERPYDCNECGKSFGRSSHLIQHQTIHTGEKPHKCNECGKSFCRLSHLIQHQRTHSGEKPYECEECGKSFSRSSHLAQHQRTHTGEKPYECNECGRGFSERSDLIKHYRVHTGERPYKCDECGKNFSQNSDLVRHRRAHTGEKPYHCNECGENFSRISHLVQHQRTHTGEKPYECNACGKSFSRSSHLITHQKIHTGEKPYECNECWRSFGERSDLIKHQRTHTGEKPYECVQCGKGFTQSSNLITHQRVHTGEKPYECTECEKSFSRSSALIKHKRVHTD
UniProt Q7L945: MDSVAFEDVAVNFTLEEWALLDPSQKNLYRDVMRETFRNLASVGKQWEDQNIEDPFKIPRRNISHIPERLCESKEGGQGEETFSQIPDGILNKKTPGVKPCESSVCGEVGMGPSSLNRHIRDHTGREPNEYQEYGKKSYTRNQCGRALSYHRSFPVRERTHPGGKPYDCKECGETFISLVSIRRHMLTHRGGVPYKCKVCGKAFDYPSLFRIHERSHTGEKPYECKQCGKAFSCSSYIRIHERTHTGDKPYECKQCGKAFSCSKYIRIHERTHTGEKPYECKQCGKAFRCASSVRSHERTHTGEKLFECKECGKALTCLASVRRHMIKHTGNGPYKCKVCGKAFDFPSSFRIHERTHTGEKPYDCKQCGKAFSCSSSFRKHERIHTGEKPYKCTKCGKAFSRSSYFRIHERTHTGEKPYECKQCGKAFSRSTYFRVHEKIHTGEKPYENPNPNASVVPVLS
UniProt Q13263: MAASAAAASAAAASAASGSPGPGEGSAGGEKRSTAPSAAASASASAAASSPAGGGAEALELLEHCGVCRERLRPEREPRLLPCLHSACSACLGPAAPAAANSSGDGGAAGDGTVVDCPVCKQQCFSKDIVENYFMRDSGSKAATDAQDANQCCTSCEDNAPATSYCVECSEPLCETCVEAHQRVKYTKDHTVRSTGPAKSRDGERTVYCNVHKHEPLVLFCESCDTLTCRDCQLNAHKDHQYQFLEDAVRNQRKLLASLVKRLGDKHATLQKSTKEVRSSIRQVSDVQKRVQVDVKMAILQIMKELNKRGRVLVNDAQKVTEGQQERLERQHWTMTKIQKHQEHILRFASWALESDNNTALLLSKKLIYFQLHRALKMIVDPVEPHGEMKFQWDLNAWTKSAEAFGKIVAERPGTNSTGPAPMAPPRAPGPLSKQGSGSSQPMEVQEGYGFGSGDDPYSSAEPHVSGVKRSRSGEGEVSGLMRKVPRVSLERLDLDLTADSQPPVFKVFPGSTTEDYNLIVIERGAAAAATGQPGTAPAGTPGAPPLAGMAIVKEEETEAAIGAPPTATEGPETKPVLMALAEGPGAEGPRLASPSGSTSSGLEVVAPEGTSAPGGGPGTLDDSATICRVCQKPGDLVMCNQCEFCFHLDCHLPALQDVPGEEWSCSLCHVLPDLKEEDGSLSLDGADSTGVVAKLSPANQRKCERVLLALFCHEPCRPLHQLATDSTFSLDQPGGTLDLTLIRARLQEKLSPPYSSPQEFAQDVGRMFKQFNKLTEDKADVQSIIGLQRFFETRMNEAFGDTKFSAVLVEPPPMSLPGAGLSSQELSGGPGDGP

In assay [1] the target is HA-tagged ZNF436 (co-immunoprecipitation construct, A673 cells) (human) (UniProt Q9C0F3). Kind of assay: co-IP.
Assay [2] has as its target HA-tagged ZNF627 (co-immunoprecipitation construct, A673 cells) (UniProt Q7L945). Description: co-IP.

Regarding “KAP1 (TRIM28), endogenous in A673 cells (from UniProt Q13263 1-835)”, the binding entry in assay [1] is on record as “no binding”; in assay [2], “binds”.

(Values after doi:10.1101/2025.05.13.653700.)
